The source of these data is patent publication US20160108128A1 (CANCER RESEARCH TECHNOLOGY, published 2016).

Amino acid sequences for entries named in this document (tags omitted). Residues count along the entry.
UniProt P78504, residues 34-1218: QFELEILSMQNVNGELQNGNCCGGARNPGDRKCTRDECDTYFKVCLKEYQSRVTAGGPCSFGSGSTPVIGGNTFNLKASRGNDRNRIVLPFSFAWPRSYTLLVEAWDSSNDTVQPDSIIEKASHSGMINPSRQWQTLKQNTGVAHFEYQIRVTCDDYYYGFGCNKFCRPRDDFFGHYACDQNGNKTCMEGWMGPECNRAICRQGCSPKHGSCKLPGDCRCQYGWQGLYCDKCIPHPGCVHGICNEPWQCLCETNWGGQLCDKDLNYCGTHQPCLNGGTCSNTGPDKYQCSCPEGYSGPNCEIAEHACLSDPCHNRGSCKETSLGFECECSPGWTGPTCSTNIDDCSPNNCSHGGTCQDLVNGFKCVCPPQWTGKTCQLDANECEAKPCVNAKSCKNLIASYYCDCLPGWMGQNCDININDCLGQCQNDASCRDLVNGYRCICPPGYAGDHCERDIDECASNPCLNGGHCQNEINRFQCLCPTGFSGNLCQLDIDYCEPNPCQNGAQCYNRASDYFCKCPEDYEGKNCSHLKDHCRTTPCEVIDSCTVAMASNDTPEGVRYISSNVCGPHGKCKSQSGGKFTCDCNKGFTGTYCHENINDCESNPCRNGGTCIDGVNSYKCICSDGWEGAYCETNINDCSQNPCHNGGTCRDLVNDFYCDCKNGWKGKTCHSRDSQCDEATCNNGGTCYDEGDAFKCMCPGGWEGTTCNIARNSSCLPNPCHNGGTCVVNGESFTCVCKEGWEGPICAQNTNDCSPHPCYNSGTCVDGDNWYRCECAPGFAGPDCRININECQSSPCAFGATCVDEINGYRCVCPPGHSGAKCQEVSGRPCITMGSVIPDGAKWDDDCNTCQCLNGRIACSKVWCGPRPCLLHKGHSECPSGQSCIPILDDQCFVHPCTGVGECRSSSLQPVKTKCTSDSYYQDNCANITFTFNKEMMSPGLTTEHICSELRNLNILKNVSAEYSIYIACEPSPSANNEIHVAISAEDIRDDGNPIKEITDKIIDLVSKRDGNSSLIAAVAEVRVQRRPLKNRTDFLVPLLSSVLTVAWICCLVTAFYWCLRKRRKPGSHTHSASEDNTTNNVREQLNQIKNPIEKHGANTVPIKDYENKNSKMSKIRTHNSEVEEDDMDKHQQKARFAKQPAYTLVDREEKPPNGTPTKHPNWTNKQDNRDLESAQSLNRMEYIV

B1: J1-183D variant 6 (antibody, human IgG1, V domains shown)
VH: QVQLVQSGAELKKPGASVKVSCKVSGYAFTDYAIHWIRQAPGQGLEWMGIINTYYGDSKYAQKFQGRVTMTVDTSTSTAYMELSSLRSEDTAVYYCARGYDGFAYWGQGTLVTVSS
VL: DIQMTQSPSSLSASVGDRVTITCRTSENIYSYLTWYQQKPGKAPKLLIYNAKTLASGVPSRFSGSGSGTDFTLTISSLQPEDFATYYCQHHYDIPWTFGGGTKLEIKR
notes: human IgG1; also called J1-183DV6; V6
B2: J1-183D variant 12 (antibody, human IgG1, V domains shown)
VH: B1 VH with L11V, V24A, A28T, I37V
VL: B1 VL with T53I, A55D
notes: human IgG1; also called J1-183DV12; V12
B3: J1-183D variant 13 (antibody, human IgG1, V domains shown)
VH: B1 VH with A61N, Q65K, G66D, T74K
VL: B1 VL with N50H, T53I, A55D
notes: human IgG1; also called J1-183DV13; V13
B4: J1-183D variant 9 (antibody, human IgG1, V domains shown)
VH: B1 VH with A61N, Q65K, G66D, T74K
VL: B1 VL with T53I, A55D
notes: human IgG1; also called J1-183DV9; V9
B5: J1-183D variant 7 (antibody, human IgG1, V domains shown)
VH: B1 VH with I37V
VL: B1 VL
notes: human IgG1; also called J1-183DV7; V7
B6: J1-183D variant 14 (antibody, human IgG1, V domains shown)
VH: B1 VH
VL: B1 VL with N50H, T53I, A55D
notes: human IgG1; also called J1-183DV14; V14
B7: J1-183D variant 11 (antibody, human IgG1, V domains shown)
VH: B1 VH with I37V
VL: B1 VL with T53I, A55D
notes: human IgG1; also called J1-183DV11; V11
B8: J1-183D variant 16 (antibody, human IgG1, V domains shown)
VH: B1 VH with L11V, V24A, A28T, I37V
VL: B1 VL with N50H, T53I, A55D
notes: human IgG1; also called J1-183DV16; V16
B9: J1-183D variant 15 (antibody, human IgG1, V domains shown)
VH: B1 VH with I37V
VL: B1 VL with N50H, T53I, A55D
notes: human IgG1; also called J1-183DV15; V15
B10: J1-183D variant 8 (antibody, human IgG1, V domains shown)
VH: B1 VH with L11V, V24A, A28T, I37V
VL: B1 VL
notes: human IgG1; also called J1-183DV8; V8
B11: J1-183D chimeric (antibody, human IgG1, V domains shown)
VH: QVQLQQPGTELVRPGVSVKISCKVSGYAFTDYAIHWIMQSHAKSLEWIGIINTYYGDSKYNQKFKDKATMTVDKSSNTAYMELARLTSEDSAIYYCARGYDGFAYWGQGTLVTVSS
VL: DIQLTQSPASLSASVGETVTFTCRTSENIYSYLTWYQQKQGKSPQLLVYNAKILAAGVPSRFSGYGSGTQFSLKINSLQPEDFGTYYCQHHYDIPWTFGGGTKLEIK
notes: chimeric antibody with unaltered CDRs; vectors encode human IgG1

Changes are numbered by the printed parent chain. No constants are given. Whether binding was seen depends on the method and setting. Some binding calls cover weakened binding; strength is not graded here.

One experiment concerns the target T1, human Jagged 1, full length, on cells (human, UniProt P78504 34-1218).
T1 construct: whole, on cells; the cell is named under assay; also called hJ1; J1
As to the kind of experiment: FACS, 293-JAG1 cells. (A flow cytometer gives signals particle by particle.)
In the case of B1, the binding result is “binds”.
The same measure, in the same setting: under B2 stands “binds”; under B3, “binds”; under B4, “binds”.
On the same count and under the same terms, under B5 stands “binds”; under B6, “binds”.
For B7, the binding result is on record as “binds”.
For the molecule B8, the binding entry is listed as “binds”.
Turning to B9, the binding entry is “binds”.
The same measure, in the same setting: next, B10: “binds”; B11: “binds”.

For a further experiment, the target named is T1, human Jagged 1, full length, on cells. Nature of the experiment: FACS, 293-JAG1 cells, anti-human-APC.
For the molecule B1, the binding result is reported as “binds”.
Still for that read-out and setting: under B2 stands “binds”; under B3, “binds”; under B4, “binds”.
Regarding B5, the binding result is “binds”.
Still for that read-out and setting: under B6 stands “binds”.
In the case of B7, the binding result is “binds”.
On to B8, for which the binding result is “binds”.
On the same count and under the same terms, under B9 stands “binds”; under B10, “binds”.
Still for that read-out and setting: next, B11: “binds”.
